Data source: PubChem BioAssay AID1508588 (Peter MacCallum Cancer Centre, 2020)

Assay: 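Knock-downs boosting vemurafenib effects on melanoma cell growth or lactate release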 (primary screen)
Cell system: human WM266.4 melanoma cells (BRAF V600 mutant)
Reagents: siRNA pool against human genes, 40 nM
Time to read-out: 96 h from transfection to read-out
Treatment: vemurafenib 300 nM (about IC25), added 48 h after transfection, for 48 h; comparison arm got DMSO vehicle only
Detection: 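Ratios to non-targeting siRNA for cell gain, counted as DAPI nuclei after minus before drug and averaged over two replicates, and for absorbance-read medium lactate per cell; both binned into fold-change classes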
Direction: cell gain with vemurafenib: higher = more cell gain than with non-targeting siRNA; lactate per cell with vemurafenib: higher = more lactate made per cell
Active means: 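Enhancement is called by pairing each knock-down's vehicle-arm and drug-arm fold-change classes for viability or glycolysis; which class combinations qualify is not given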
Meaning of the calls: active = enhances vemurafenib effect; inactive = no enhancement seen
The deposit covers about 18,000 reagents; below is an unselected part. Over the whole deposit, 790 (4.4%) got an active call. 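Calls rest on a combination of fold-change classes in drug and vehicle arms, not all shown here.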 No sequences are given here.

| cell gain with vemurafenib | lactate per cell with vemurafenib | call | gene symbol |
| --- | --- | --- | --- |
| 0.52 | 1.46 | inactive | MYH2 (myosin heavy chain 2) |
| 0.75 | 0.97 | inactive | CEP83 (centrosomal protein 83) |
| 0.89 | 0.48 | inactive | REXO2 (RNA exonuclease 2) |
| 0.99 | 0.45 | inactive | MARCHF8 (membrane associated ring-CH-type finger 8) |
| 0.52 | 0.44 | inactive | POF1B (POF1B actin binding protein) |
| 0.47 | 0.92 | inactive | RALB (RAS like proto-oncogene B) |
| 0.88 | 0.91 | inactive | SPIN1 (spindlin 1) |
| 0.87 | 0.89 | inactive | RENBP (renin binding protein) |
| 1.1 | 1.07 | inactive | FCRLB (Fc receptor like B) |
| 0.55 | 1.52 | inactive | ITM2A (integral membrane protein 2A) |
| 0.72 | 0.9 | inactive | SLC38A12 |
| 0.6 | 1.03 | inactive | CDC16 (cell division cycle 16) |
| 0.69 | 0.42 | inactive | MARCHF11 (membrane associated ring-CH-type finger 11) |
| 0.43 | 0.72 | inactive | HTR1D (5-hydroxytryptamine receptor 1D) |
| 0.57 | 0.43 | active | TSGA13 (testis specific 13) |
| 0.59 | 1.96 | inactive | STAT4 (signal transducer and activator of transcription 4) |
| 0.54 | 0.06 | active | OSBP2 (oxysterol binding protein 2) |
| 0.53 | 1.28 | inactive | PICK1 (protein interacting with PRKCA 1) |
| 0.21 | 2.3 | inactive | MAP3K13 (mitogen-activated protein kinase kinase kinase 13) |
| 0.67 | 1.04 | inactive | ST3GAL2 (ST3 beta-galactoside alpha-2,3-sialyltransferase 2) |
| 0.84 | 1.12 | inactive | GP2 (glycoprotein 2) |
| 0.77 | 0.64 | inactive | ALKBH6 (alkB homolog 6, nucleotide demethylase) |
| 0.63 | 0.88 | inactive | PTPRB (protein tyrosine phosphatase receptor type B) |
| 0.64 | 0.66 | inactive | ERN1 (endoplasmic reticulum to nucleus signaling 1) |
| 0.53 | 1.29 | inactive | DNAJA3 (DnaJ heat shock protein family (Hsp40) member A3) |
| 0.31 | 0.76 | inactive | LRP5L (LDL receptor related protein 5 like (pseudogene)) |
| 0.06 | 0.84 | inactive | CPNE6 (copine 6) |
| 0.72 | 0.5 | inactive | CHAT (choline O-acetyltransferase) |
| 0.9 | 0.75 | inactive | SOST (sclerostin) |
| 0.13 | 1.4 | inactive | DISP1 (dispatched RND transporter family member 1) |
| 0.67 | 0.44 | inactive | CENPM (centromere protein M) |
| 0.54 | 1.26 | inactive | IPMK (inositol polyphosphate multikinase) |
| 1 | 0.64 | inactive | SCN8A (sodium voltage-gated channel alpha subunit 8) |
| 0.34 | 1.52 | inactive | AKAP10 (A-kinase anchoring protein 10) |
| 0.23 | 1.44 | inactive | THAP8 (THAP domain containing 8) |
| 0.27 | 0.93 | inactive | ERP29 (endoplasmic reticulum protein 29) |
| 0.91 | 0.76 | inactive | FAM20C (FAM20C golgi associated secretory pathway kinase) |
| -0.04 | 2.92 | inactive | UBB (ubiquitin B) |
| 0.32 | 1.39 | inactive | CEACAM5 (CEA cell adhesion molecule 5) |
| 0.59 | 0.68 | inactive | FAM117A (family with sequence similarity 117 member A) |
| 0.73 | 0.26 | inactive | CDSN (corneodesmosin) |
| 0.16 | 1.54 | inactive | TNS2 (tensin 2) |
| 0.67 | 0.64 | inactive | SNX21 (sorting nexin family member 21) |
| 0.72 | 0.86 | inactive | DLX2 (distal-less homeobox 2) |
| 0.82 | 0.72 | inactive | MANEA (mannosidase endo-alpha) |
| 0.17 | 2.44 | inactive | SEC14L4 (SEC14 like lipid binding 4) |
| 0.43 | 2 | inactive | PHB1 (prohibitin 1) |
| 0.49 | 1.08 | inactive | QTRT1 (queuine tRNA-ribosyltransferase catalytic subunit 1) |
| 0.26 | 1.5 | inactive | FOSL2 (FOS like 2, AP-1 transcription factor subunit) |
| 0.74 | 0.73 | inactive | CNTNAP2 (contactin associated protein 2) |
| 1.41 | 0.5 | inactive | ISYNA1 (inositol-3-phosphate synthase 1) |
| 1.24 | 0.73 | inactive | SIRT7 (sirtuin 7) |
| 0.9 | 0.48 | inactive | QPCT (glutaminyl-peptide cyclotransferase) |
| 0.5 | 0.44 | inactive | MPIG6B (megakaryocyte and platelet inhibitory receptor G6b) |
| 0.64 | 0.74 | inactive | TTLL4 (tubulin tyrosine ligase like 4) |
| 0.57 | 1.19 | inactive | ADGRA1 (adhesion G protein-coupled receptor A1) |
| 1.06 | 1.17 | inactive | APOD (apolipoprotein D) |
| 0.64 | 1 | inactive | MANBA (mannosidase beta) |
| 0.13 | 1.35 | inactive | PABPN1L (PABPN1 like, cytoplasmic) |
| 0.06 | 2.19 | inactive | SPMIP3 (sperm microtubule inner protein 3) |
| 0.8 | 1.08 | inactive | SEPTIN3 (septin 3) |
| 0.63 | 1.1 | inactive | TMEM17 (transmembrane protein 17) |
| 0.63 | 1.1 | inactive | SPACA5B (sperm acrosome associated 5B) |
| 1.28 | 0.69 | inactive | APBA2 (amyloid beta precursor protein binding family A member 2) |
| 0.68 | 1.07 | inactive | IER5L (immediate early response 5 like) |
| 0.2 | 1.08 | inactive | PIGP (phosphatidylinositol glycan anchor biosynthesis class P) |
| 0.68 | 0.86 | inactive | CLDN5 (claudin 5) |
| 0.91 | 0.8 | inactive | PRPF39 (pre-mRNA processing factor 39) |
| 0.81 | 1.15 | inactive | DRG1 (developmentally regulated GTP binding protein 1) |
| 1.02 | 0.94 | inactive | STK33 (serine/threonine kinase 33) |
| 0.73 | 1.04 | inactive | CUL1 (cullin 1) |
| 0.13 | 0.88 | inactive | TBC1D28 (TBC1 domain family member 28) |
| 0.06 | 0.91 | inactive | VEGFB (vascular endothelial growth factor B) |
| 0.18 | 1.45 | inactive | ZNF583 (zinc finger protein 583) |
| 0.95 | 0.66 | inactive | CDC50A (cell division cycle 50 P4-ATPase accessory subunit A) |
| 0.52 | 0.89 | inactive | MRPL47 (mitochondrial ribosomal protein L47) |
| -0.01 | 3.17 | inactive | UCK2 (uridine-cytidine kinase 2) |
| 0.35 | 0.84 | inactive | H2AC25 (H2A clustered histone 25) |
| 0.5 | 1.51 | inactive | PLPP6 (phospholipid phosphatase 6) |
| 0.3 | 1.42 | inactive | AQP9 (aquaporin 9) |
| 0.31 | 0.3 | inactive | NXN (nucleoredoxin) |
| 0.7 | 0.91 | inactive | TRIM64B (tripartite motif containing 64B) |
| 0.4 | 0.88 | inactive | GRWD1 (glutamate rich WD repeat containing 1) |
| 0.6 | 0.84 | inactive | VPS37D (VPS37D subunit of ESCRT-I) |

Part of the list above, limited to “lactate per cell with vemurafenib”.
ST3GAL2 (ST3 beta-galactoside alpha-2,3-sialyltransferase 2) = 1.04
GP2 (glycoprotein 2) = 1.12
ALKBH6 (alkB homolog 6, nucleotide demethylase) = 0.64
PTPRB (protein tyrosine phosphatase receptor type B) = 0.88
ERN1 (endoplasmic reticulum to nucleus signaling 1) = 0.66
DNAJA3 (DnaJ heat shock protein family (Hsp40) member A3) = 1.29
LRP5L (LDL receptor related protein 5 like (pseudogene)) = 0.76
CPNE6 (copine 6) = 0.84
